{
  "source": "PubChem BioAssay AID540256",
  "about": "(National Center for Advancing Translational Sciences (NCATS), 2011)",
  "note": "Hit rate of the full screen: of about 300,000 compounds, about 3,700 (1.2%) were called active. The inconclusive results got no clear call from the source; some entries with a clear call stand among them for comparison. Calls follow the shape of the full dose curve; tested in HEK293 cells. Where the call is inconclusive, the potency comes from a doubtful curve fit. % is scaled to controls: 0 for no effect and ±100 for the full control effect; potency is read from the fitted curve at half-maximal effect.",
  "data": [
    {"test": "qHTS for Inhibitors of binding or entry into cells for Lassa Virus; also: nearly all actives have a fitted effect of over 50% in size", "details": "Lassa virus pseudotype entry inhibition, cell reporter; activity change, negative = inhibition: at 37.9 µM (top of the series) unless noted", "values": [
      {"smiles": "O=C1C2=C(Nc3ccccc3SC2c2ccc(C(F)(F)F)cc2)c2ccccc21", "note": "(stereo unspecified)", "Potency": "inconclusive: 10 µM [inhibitor, partial curve, poor fit]"},
      {"smiles": "O=[N+]([O-])c1ccc(-c2cn(-c3ccccc3)c(=S)[nH]2)cc1", "activity change, negative = inhibition": "inactive: -9.88%"},
      {"smiles": "CC1CN=C(Nc2cccc3ccccc23)S1", "note": "(stereo unspecified)", "Potency": "inconclusive: 10 µM [activator, partial curve]"},
      {"smiles": "Cc1ccc(NS(=O)(=O)c2ccccc2)c2c1CC(C)(C)O2", "Potency": "inconclusive: 0.73 µM [inhibitor, partial curve, poor fit]"},
      {"smiles": "COc1ccc(NC(=O)CSc2ccc(F)cc2)cc1S(=O)(=O)N1CCCCC1", "Potency": "inconclusive: 12.6 µM [inhibitor, partial curve, poor fit]"},
      {"smiles": "CC(CC(=O)Nc1nc2ccccc2[nH]1)c1ccccc1", "note": "(stereo unspecified)", "Potency": "inconclusive: 35.5 µM [inhibitor, single point]"},
      {"smiles": "COc1ccc(C(C(=O)NC2CCCCC2)N(C(=O)CCl)c2ccc(Cl)cc2)cc1", "note": "(stereo unspecified)", "Potency": "inconclusive: 15.8 µM [inhibitor, partial curve, poor fit]"},
      {"smiles": "Cc1cc(C(=O)NCCCC(=O)O)c(C)o1", "activity change, negative = inhibition": "inactive: -7.75%"},
      {"smiles": "N/C(=N\\OC(=O)c1cc([N+](=O)[O-])ccc1Cl)c1cccnc1", "Potency": "inconclusive: 7.08 µM [inhibitor, partial curve, poor fit]"},
      {"smiles": "COc1ccc(CC(=O)Nc2c(C(=O)N3CCN(c4ccccc4F)CC3)oc3ccccc23)cc1OC", "Potency": "inconclusive: 3.55 µM [inhibitor, full curve]"},
      {"smiles": "COc1ccccc1C=C1C(=O)NC(=S)NC1=O", "activity change, negative = inhibition": "inactive: 14.8%"},
      {"smiles": "O=C1N/C(=C/c2cccn2-c2ccccc2)C(=O)N1Cc1ccc(F)cc1", "Potency": "inconclusive: 0.562 µM [inhibitor, single point]"},
      {"smiles": "CC(C)c1ccc(S(=O)(=O)N2CCN(CC(=O)Nc3ccc4c(c3)OCO4)CC2)cc1", "Potency": "inconclusive: 35.5 µM [inhibitor, single point]"},
      {"smiles": "CN(C)S(=O)(=O)c1cccc(C(=O)Nc2n[nH]c(C(F)(F)F)n2)c1", "activity change, negative = inhibition": "inactive: 3.93%"},
      {"smiles": "O=C(CCS(=O)(=O)c1ccc(Br)cc1)NC1CCCC1", "activity change, negative = inhibition": "inactive: -5%"},
      {"smiles": "COc1ccc(NC(=O)C(=O)NCC2(c3ccccc3)CCCC2)c(OC)c1", "activity change, negative = inhibition": "inactive: -22.9% [at 46.1 µM]"},
      {"smiles": "CCC(C)n1c(O)c(C=Nc2cccc(C(F)(F)F)c2)c(=O)[nH]c1=S", "note": "(stereo unspecified)", "activity change, negative = inhibition": "inactive: 1.64%"},
      {"smiles": "CCOc1ccc(-c2cc(C(=O)N3CCN(c4cccc(C(F)(F)F)c4)CC3)c3ccccc3n2)cc1", "Potency": "inconclusive: 3.98 µM [inhibitor, partial curve, poor fit]"},
      {"smiles": "CCOc1ccccc1N(CC(=O)Nc1ccc(OC)c(Cl)c1)S(=O)(=O)c1ccccc1", "Potency": "inconclusive: 7.08 µM [inhibitor, partial curve]"},
      {"smiles": "COc1ccc(C2C(CC(=O)O)=C(O)C(=O)N2c2ccccc2)cc1", "note": "(stereo unspecified)", "activity change, negative = inhibition": "inactive: 6.17%"},
      {"smiles": "O=C(NC1CCCCCCC1)c1ccc2c(c1)OCO2", "activity change, negative = inhibition": "inactive: -20.5%"},
      {"smiles": "COc1ccc(/C=C/C(=O)Nc2cc(C)nn2-c2nc3ccccc3n2Cc2cccc([N+](=O)[O-])c2)cc1", "activity change, negative = inhibition": "inactive: -1.26%"},
      {"smiles": "COc1cc(CNC(C)(C)C)cc(Br)c1OCc1cccs1", "Potency": "inconclusive: 12.6 µM [inhibitor, single point]"},
      {"smiles": "COc1ccc(N2CC(C(=O)NCCc3ccc(Cl)cc3)CC2=O)cc1", "note": "(stereo unspecified)", "Potency": "inconclusive: 5.62 µM [inhibitor, single point]"},
      {"smiles": "Cc1cccc(NS(=O)(=O)c2cccc(C(=O)NCC(c3ccc(F)cc3)N3CCOCC3)c2)c1", "note": "(stereo unspecified)", "Potency": "inconclusive: 11.2 µM [inhibitor, partial curve, poor fit]"},
      {"smiles": "O=C(Nc1ccccc1)N1CCN(c2ccc(C(F)(F)F)cn2)CC1", "activity change, negative = inhibition": "inactive: 3.46%"},
      {"smiles": "Cc1ccc(C)c(C(=O)CN2C(=O)NC3(CCC(C)CC3)C2=O)c1", "note": "(stereo unspecified)", "Potency": "inconclusive: 0.891 µM [inhibitor, single point]"},
      {"smiles": "CN(C)c1ccc(C(C(=O)NC2CCCC2)N(Cc2cccnc2)C(=O)c2snc(C(N)=O)c2N)cc1", "note": "(stereo unspecified)", "Potency": "inconclusive: 2.51 µM [inhibitor, partial curve, poor fit]"},
      {"smiles": "O=C(COc1ccccc1C(=O)O)NC1CCCc2ccccc21", "note": "(stereo unspecified)", "Potency": "inconclusive: 35.5 µM [activator, single point]"},
      {"smiles": "Cc1nnc(SCC(=O)N(C)CC(=O)Nc2ccc(F)cc2)n1Cc1ccccc1", "activity change, negative = inhibition": "inactive: 5.75% [at 46.1 µM]"},
      {"smiles": "N=c1c(C(=O)NC2CCCCC2)cc2c(=O)n3ccccc3nc2n1CCc1ccccc1", "activity change, negative = inhibition": "inactive: 8.75%"},
      {"smiles": "C=CCn1c(C)csc1=Nc1ccc(C(C)=O)cc1", "activity change, negative = inhibition": "inactive: -18.2%"},
      {"smiles": "CCOc1ccccc1N1CCN(CC(=O)Nc2cc(C)on2)CC1", "Potency": "inconclusive: 1 µM [activator, partial curve, poor fit]"},
      {"smiles": "Cc1cccc(N2C(=O)CC(Sc3ccccc3C(=O)O)C2=O)c1", "note": "(stereo unspecified)", "activity change, negative = inhibition": "inactive: 9.15%"},
      {"smiles": "COc1ccc(C(=O)/C=C/Nc2cc(C)ccn2)cc1", "Potency": "inconclusive: 0.891 µM [inhibitor, full curve, poor fit]"},
      {"smiles": "O=C1C2C3CC(C(Br)C3Br)C2C(=O)N1c1ccccn1", "note": "(stereo unspecified)", "Potency": "inconclusive: 1.3 µM [inhibitor, full curve]"},
      {"smiles": "C(=N\\Nc1nc2ccccc2[nH]1)/c1ccc2c(c1)OCO2", "Potency": "inconclusive: 15.8 µM [inhibitor, single point]"},
      {"smiles": "COc1cc(NC(=S)NC(=O)c2ccco2)ccc1NC(=O)C(C)C", "Potency": "inconclusive: 31.6 µM [activator, single point]"},
      {"smiles": "CCc1nc2ccc(C(=O)NCCCN3CCN(c4ccc(F)cc4)CC3)cc2nc1CC", "Potency": "inconclusive: 15.8 µM [inhibitor, single point]"},
      {"smiles": "CCOC(=O)NCCc1c(C)nc2c(c(C)nn2C(C)(C)C)c1C", "Potency": "inconclusive: 35.5 µM [inhibitor, single point]"},
      {"smiles": "COc1ccc(CN2CCC(C(=O)Nc3ccc(Oc4cccnc4)cc3)CC2)cc1", "Potency": "inconclusive: 10 µM [inhibitor, single point]"},
      {"smiles": "O=S(=O)(c1cccs1)N1CCC(CO)(Cc2ccc(Cl)cc2)CC1", "Potency": "inconclusive: 17.8 µM [inhibitor, partial curve, poor fit]"},
      {"smiles": "COc1ccc(-n2ncc(C(C)NS(=O)(=O)c3cc(F)ccc3C)c2C)cc1", "note": "(stereo unspecified)", "activity change, negative = inhibition": "inactive: -14.1%"},
      {"smiles": "COc1ccc(Br)cc1CNC(=O)C1COc2ccccc2C1", "note": "(stereo unspecified)", "Potency": "inconclusive: 1.12 µM [inhibitor, full curve, poor fit]"},
      {"smiles": "Cc1ccc(C(=O)CC(=O)c2cccc(F)c2)c(O)c1", "Potency": "inconclusive: 25.9 µM [inhibitor, partial curve, poor fit]"},
      {"smiles": "Cc1ccc2oc(-c3cc(NC(=O)c4cccs4)cc(C)c3O)nc2c1", "activity change, negative = inhibition": "inactive: -4.52% [at 46.1 µM]"},
      {"smiles": "COc1ccc(C(=O)NCc2ccc(F)cc2)cc1S(=O)(=O)N1CCCC1", "activity change, negative = inhibition": "inactive: -14.9%"},
      {"smiles": "O=C(NC1CCN(Cc2ccccc2)CC1)C1CCN(S(=O)(=O)c2ccc(Cl)cc2)CC1", "Potency": "inconclusive: 12.6 µM [inhibitor, single point]"},
      {"smiles": "CC(=C/c1ccc(C(C)C)cc1)/C=N/NC(=O)Cn1nnnc1N", "activity change, negative = inhibition": "inactive: 19%"},
      {"smiles": "CC(C)(C)c1ccc(C(=O)N/C(=C\\c2cccs2)C(=O)NCc2ccco2)cc1", "activity change, negative = inhibition": "inactive: -40.8%"},
      {"smiles": "CCOC(=O)N1CCN(C(=O)COc2cccc3c2CCN(Cc2ccccc2F)C3=O)CC1", "Potency": "inconclusive: 23.1 µM [inhibitor, single point]"},
      {"smiles": "COc1cc2ccccc2cc1C(=O)Nc1cccnc1", "activity change, negative = inhibition": "inactive: -3.46%"},
      {"smiles": "Cn1ccnc1SCC(=O)c1ccc(OC(F)F)cc1", "activity change, negative = inhibition": "inactive: 1.27%"},
      {"smiles": "CCOC(=O)c1csc(NC(=O)c2ccc3c(c2)OCCO3)n1", "Potency": "inconclusive: 25.1 µM [inhibitor, single point]"},
      {"smiles": "O=c1c(-c2ccc(O)cc2)coc2cc(O)ccc12", "Potency": "inconclusive: 14.6 µM [activator, partial curve]"},
      {"smiles": "CN(C)c1cc[n+](Cc2ccccc2)cc1", "Potency": "inconclusive: 10 µM [inhibitor, partial curve, poor fit]"},
      {"smiles": "CCOC(=O)c1oc2c(c1C)/C(=N/O)CCC2", "Potency": "inconclusive: 6.31 µM [activator, single point]"},
      {"smiles": "Cc1cccc(Oc2coc3cc(OCC(=O)NC4CCCCC4)ccc3c2=O)c1", "activity change, negative = inhibition": "inactive: -1.16% [at 46.1 µM]"},
      {"smiles": "Oc1ccc(CN2CCC(Cc3ccccc3)CC2)c2cccnc12", "Potency": "active: 2.82 µM"},
      {"smiles": "CC1CCCCN1C(=O)CSc1nnc(-c2ccccc2Cl)o1", "note": "(stereo unspecified)", "Potency": "inconclusive: 35.5 µM [inhibitor, single point]"},
      {"smiles": "CCOc1ccc(N(CC)S(=O)(=O)N2CCCC(C(=O)NCCc3ccccc3OC)C2)cc1", "note": "(stereo unspecified)", "Potency": "inconclusive: 6.31 µM [inhibitor, single point]"},
      {"smiles": "C/C(CC(=O)Nc1ccc2c(c1)OCCO2)=N\\NC(=O)c1cccc(O)c1", "activity change, negative = inhibition": "inactive: 2.23%"},
      {"smiles": "O=C(NC1CCCC1)c1noc2c1CCCCC2", "activity change, negative = inhibition": "inactive: 8.54%"},
      {"smiles": "CN1CCN(S(=O)(=O)c2ccc(N3CCN(c4ccccc4O)CC3)c([N+](=O)[O-])c2)CC1", "Potency": "inconclusive: 1.26 µM [inhibitor, partial curve, poor fit]"},
      {"smiles": "COc1ccc(N/C=C/C(=O)c2cc(OC)c(OC)c(OC)c2)cc1", "activity change, negative = inhibition": "inactive: -26.2% [at 46.1 µM]"},
      {"smiles": "COc1ccc(NC(=O)CN(C)C(=O)c2cc(-c3ccc(Cl)cc3)nc3ccccc23)cc1", "Potency": "inconclusive: 0.398 µM [inhibitor, partial curve, poor fit]"},
      {"smiles": "OC(CNCc1ccc(-c2ccccc2)cc1)c1ccccc1", "note": "(stereo unspecified)", "Potency": "inconclusive: 17.8 µM [inhibitor, partial curve, poor fit]"},
      {"smiles": "NC(=O)c1ccsc1NC(=O)c1cc(=O)c2ccccc2o1", "Potency": "inconclusive: 0.651 µM [activator, full curve]"},
      {"smiles": "Cc1ccc(Cl)cc1N1CCN(CCN)CC1", "activity change, negative = inhibition": "inactive: -0.0103%"},
      {"smiles": "CCOc1cccc2cc(-c3csc(NC(=O)CCC(=O)NCCN4CCCCC4C)n3)c(=O)oc12", "note": "(stereo unspecified)", "Potency": "inconclusive: 15.8 µM [inhibitor, single point]"},
      {"smiles": "Cc1ccc(C(=O)N2CCN(C3c4cccc5cccc(c45)C3NS(=O)(=O)c3ccccc3)CC2)cc1", "note": "(stereo unspecified)", "Potency": "active: 12.6 µM"}
    ]}
  ]
}
